Test results published in article PMC8860586.
For part of these data: A negative result means that nothing was seen under these conditions. For part of these data: A weaker result is weaker than the reference pair of the same experiment. For part of these data: Results from cells or extracts need not show a direct contact. For part of these data: The exact form of at least one protein or probe is not confirmed.

Chains of the proteins cited; added tags and fusions are not shown. Residues count along the entry.
UniProt P08670, 2-466: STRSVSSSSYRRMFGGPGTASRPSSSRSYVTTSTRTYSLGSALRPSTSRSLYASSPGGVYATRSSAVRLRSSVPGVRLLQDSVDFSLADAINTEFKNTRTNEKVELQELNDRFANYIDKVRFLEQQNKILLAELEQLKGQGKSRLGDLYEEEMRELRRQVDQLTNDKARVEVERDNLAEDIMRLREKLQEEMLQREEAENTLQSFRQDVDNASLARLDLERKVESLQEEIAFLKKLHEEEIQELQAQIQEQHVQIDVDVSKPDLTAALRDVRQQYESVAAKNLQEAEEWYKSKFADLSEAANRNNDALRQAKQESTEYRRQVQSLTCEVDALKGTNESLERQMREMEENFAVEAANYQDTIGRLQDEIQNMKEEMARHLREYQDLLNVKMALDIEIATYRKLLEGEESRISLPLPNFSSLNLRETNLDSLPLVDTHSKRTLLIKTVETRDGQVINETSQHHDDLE

Experiments:
[1] = molecular target: Vimentin (HGC-27 nuclear extract) (Homo sapiens) (UniProt P08670); experiment: pull-down; details: 100 mM KCl, poly[dA-dT], no vimentin enrichment in last fraction, protein in an extract, label: 5'-biotin (KIT2KIT* strand)
Vimentin (Homo sapiens) = Vimentin (Homo sapiens) (UniProt P08670); experiment: EMSA; details: commercial protein
[2] = molecular target: Vimentin (HGC-27 nuclear extract) (Homo sapiens) (UniProt P08670); experiment: pull-down, LC-MSE; details: 100 mM KCl, poly[dA-dT], eluted only by boiling in Laemmli buffer, protein in an extract, label: 5'-biotin, folded or branched DNA
[3] = 150 mM KCl, pH 8.4, poorly defined complex

Sequence: CGGGCGGGCGCGAGGGAGGGGAGGCGAGGAGGGGCGTGGCCGGC (double strand) [biotin-ds KIT2KIT*]
- binding result [1]: no binding

Sequence: CGGGCGGGCGCGAGGGAGGGGAGGCGAGGAGGGGCGTGGCCGGC (double strand) [ds KIT2KIT*]
- binding result (Vimentin (Homo sapiens); [3]): binds more weakly
- binding result (Vimentin (Homo sapiens); no KCl, pH 8.4): binds

Sequence: CGGGCGGGCGCGAGGGAGGGGAGGCGAGGAGGGGCGTGGCCGGC [biotin-KIT2KIT*]
- binding result [2]: binds

Sequence: TGGCCCTGGTGGGCGGAGGCAAAGGGGGAGCCAGGGGCGGAGAAAGGGT [G-rich noG4]
- binding result (Vimentin (Homo sapiens); 150 mM KCl, pH 8.4, single-stranded DNA): no binding

Sequence: TTAGGGTTAGGGTTAGGGTTAGGGTTAGGGTTAGGGTTAGGGTTAGGG (double strand) [ds 2TEL]
- binding result (Vimentin (Homo sapiens); [3]): binds more weakly
